We go through three substances from patent publication US20060166191A1.

Protein sequences, listed by entry. Tags and fused reporters are not part of them. Lines headed by an entry give the natural chain unless they say otherwise; changes in a name come on top. Chains listed by the source or under a name are the forms on record and can include a tag or linker. Residues count along the entry.
HA-AP3D-5′, N-terminal fragment of the AP-3 δ subunit (amino acids 1-742) with an N-terminal HA epitope tag (O14617, residues 1-742): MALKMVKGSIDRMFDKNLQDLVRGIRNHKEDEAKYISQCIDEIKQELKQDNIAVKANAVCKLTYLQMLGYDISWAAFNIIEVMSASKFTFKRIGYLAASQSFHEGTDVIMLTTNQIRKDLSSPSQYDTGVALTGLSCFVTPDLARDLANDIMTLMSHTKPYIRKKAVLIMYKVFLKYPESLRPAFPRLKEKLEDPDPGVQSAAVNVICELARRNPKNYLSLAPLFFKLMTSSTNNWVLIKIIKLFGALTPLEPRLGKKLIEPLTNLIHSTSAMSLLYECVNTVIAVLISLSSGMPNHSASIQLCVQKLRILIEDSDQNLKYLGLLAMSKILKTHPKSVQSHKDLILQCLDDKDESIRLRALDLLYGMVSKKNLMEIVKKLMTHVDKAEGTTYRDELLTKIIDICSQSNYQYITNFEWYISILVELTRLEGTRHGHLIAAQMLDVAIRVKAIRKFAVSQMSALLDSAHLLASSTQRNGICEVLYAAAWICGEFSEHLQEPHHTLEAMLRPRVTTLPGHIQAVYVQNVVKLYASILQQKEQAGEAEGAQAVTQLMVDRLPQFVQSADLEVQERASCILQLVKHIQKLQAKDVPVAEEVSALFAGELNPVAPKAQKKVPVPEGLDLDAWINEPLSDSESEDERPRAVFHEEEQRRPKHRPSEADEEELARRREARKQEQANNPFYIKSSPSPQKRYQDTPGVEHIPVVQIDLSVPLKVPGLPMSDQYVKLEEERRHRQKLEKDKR
purified protein fragment representing the interacting domain of the AP-3 delta subunit (amino acids 554-844) (O14617, residues 554-844): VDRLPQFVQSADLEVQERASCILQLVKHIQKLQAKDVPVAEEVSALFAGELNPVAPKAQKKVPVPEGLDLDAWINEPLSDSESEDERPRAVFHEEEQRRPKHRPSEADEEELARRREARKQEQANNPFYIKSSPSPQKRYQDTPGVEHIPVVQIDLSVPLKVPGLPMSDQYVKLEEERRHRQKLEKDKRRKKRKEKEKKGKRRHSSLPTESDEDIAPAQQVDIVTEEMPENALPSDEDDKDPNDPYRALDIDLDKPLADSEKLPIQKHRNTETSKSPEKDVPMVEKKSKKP
UniProt Q99816, residues 10-240: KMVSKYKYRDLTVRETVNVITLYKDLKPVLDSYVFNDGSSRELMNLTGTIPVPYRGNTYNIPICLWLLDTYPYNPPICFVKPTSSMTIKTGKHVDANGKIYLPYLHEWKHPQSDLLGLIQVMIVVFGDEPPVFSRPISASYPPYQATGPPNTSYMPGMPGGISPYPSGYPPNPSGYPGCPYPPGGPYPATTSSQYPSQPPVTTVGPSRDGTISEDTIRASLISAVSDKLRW

These are yes or no findings as the source states them, for the method shown. Binding seen in cells or lysates may run through a third protein. Some binding calls cover weakened binding; strength is not graded here.

For test [1], the target named is purified protein fragment representing the interacting domain of the AP-3 delta subunit (amino acids 554-844) (UniProt O14617). Nature of the test: pulldown of the purified fragment on bead-bound GST-Gag fusion proteins, Coomassie staining.
Test [2] has the same target. In words: pulldown of the purified fragment on bead-bound GST-Gag fusion proteins, Coomassie staining (legend of FIG. 2C).
The target of test [3] is HA-AP3D-5′, N-terminal fragment of the AP-3 δ subunit (amino acids 1-742) with an N-terminal HA epitope tag (UniProt O14617). In words: coimmunoprecipitation with anti-myc from 293T cells (legend of FIG. 3A).
Test [4] shares this target. In words: coimmunoprecipitation with anti-myc from 293T cells, anti-HA immunoblot. (In western blotting, separated proteins are transferred to a membrane and probed.)
Test [5] concerns the target HA-TSG-5′, N-terminal fragment of TSG101 (codons 10-240) with an N-terminal HA tag (human) (UniProt Q99816). The description is as above.
Test [6] deals with Gag-myc, full-length Gag molecule bearing a C-terminal myc epitope tag (HIV-1) (UniProt P04591). In words: reciprocal coimmunoprecipitation with anti-HA from 293T cells, anti-myc immunoblot.

On to GST-MA (from UniProt P04591 1-132), for which the binding entry in test [1] and in test [2] was “binds” each time.

In the case of “Gag-myc, full-length Gag molecule bearing a C-terminal myc epitope tag (from UniProt P04591 2-500)”, the binding result in test [3], in test [4] and in test [5] was “binds” each time.

In the case of “HA-AP3D-5′, N-terminal fragment of the AP-3 δ subunit (amino acids 1-742) with an N-terminal HA epitope tag (from UniProt O14617 1-742)”, in test [6], the binding result is on record as “binds”.
